Measurements published in paper PMC11200092.
These are yes or no findings as the source states them, for the method shown. Binding seen in cells or lysates may run through a third protein. Some binding calls cover weakened binding; strength is not graded here. For part of these data: Where a sequence is shown, tags or fusion partners need not be part of it. Each block holds one binder with its values, some of them ahead of it.

Amino acid sequences for entries named in this document (tags omitted).
UniProt O95819: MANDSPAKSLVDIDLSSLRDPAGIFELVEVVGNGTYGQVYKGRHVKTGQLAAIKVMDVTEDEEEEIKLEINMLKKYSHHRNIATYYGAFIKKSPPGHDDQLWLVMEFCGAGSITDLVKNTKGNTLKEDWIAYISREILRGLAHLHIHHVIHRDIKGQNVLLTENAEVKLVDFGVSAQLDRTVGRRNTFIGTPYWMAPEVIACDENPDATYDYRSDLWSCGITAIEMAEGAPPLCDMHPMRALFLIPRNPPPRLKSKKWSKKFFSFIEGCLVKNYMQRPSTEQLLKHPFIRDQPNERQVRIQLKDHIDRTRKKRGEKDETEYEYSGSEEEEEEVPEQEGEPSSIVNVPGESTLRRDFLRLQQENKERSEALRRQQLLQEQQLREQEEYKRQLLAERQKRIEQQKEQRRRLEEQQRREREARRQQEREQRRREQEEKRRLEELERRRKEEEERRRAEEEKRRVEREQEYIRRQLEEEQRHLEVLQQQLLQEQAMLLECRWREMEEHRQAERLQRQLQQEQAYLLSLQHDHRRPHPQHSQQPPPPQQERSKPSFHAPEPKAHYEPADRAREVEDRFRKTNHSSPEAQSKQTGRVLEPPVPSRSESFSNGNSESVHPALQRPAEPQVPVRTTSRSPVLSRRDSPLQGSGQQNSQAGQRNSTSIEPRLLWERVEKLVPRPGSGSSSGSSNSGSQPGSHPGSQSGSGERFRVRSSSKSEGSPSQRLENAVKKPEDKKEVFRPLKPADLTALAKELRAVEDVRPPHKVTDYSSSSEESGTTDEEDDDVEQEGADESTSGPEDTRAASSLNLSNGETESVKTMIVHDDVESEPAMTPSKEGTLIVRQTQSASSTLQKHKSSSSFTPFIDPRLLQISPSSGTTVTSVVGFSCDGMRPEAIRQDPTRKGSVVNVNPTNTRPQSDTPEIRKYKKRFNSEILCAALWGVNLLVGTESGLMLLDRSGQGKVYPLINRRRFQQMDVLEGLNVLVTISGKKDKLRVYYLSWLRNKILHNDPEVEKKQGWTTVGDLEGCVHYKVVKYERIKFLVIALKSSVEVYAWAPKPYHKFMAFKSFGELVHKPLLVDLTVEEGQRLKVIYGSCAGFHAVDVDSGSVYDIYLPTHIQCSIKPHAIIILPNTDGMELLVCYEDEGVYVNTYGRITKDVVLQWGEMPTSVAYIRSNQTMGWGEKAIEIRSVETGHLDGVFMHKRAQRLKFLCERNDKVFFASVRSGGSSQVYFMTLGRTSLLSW

Assays:
[1] = target: mitogen-activated protein kinase 4 (MAP4K4), endogenous (human (endogenous in Huh7 and PLC/PRF/5)) (UniProt O95819); test: co-IP; endogenous proteins in Huh7 and PLC/PRF/5 lysates; anti-MAP4K4 or anti-G3BP2 antibody or control IgG overnight, then protein A/G magnetic beads 4 h; washed five times with TBS (50 mM Tris-HCl, 150 mM NaCl, pH 7.4); Western blot
HA-MAP4K4 = HA-MAP4K4 (UniProt O95819); test: co-IP; HEK293T cells co-transfected with Flag-G3BP2 and HA-MAP4K4; lysates with anti-HA antibody and protein A/G magnetic beads or anti-FLAG magnetic beads, 4 °C overnight; washed five times with TBS (50 mM Tris-HCl, 150 mM NaCl, pH 7.4); Western blot

binding [1]: no binding
B1: Peptide transporter 1 (PEPT1), endogenous (protein, UniProt P46059 1-708)
chain: MGMSKSHSFFGYPLSIFFIVVNEFCERFSYYGMRAILILYFTNFISWDDNLSTAIYHTFVALCYLTPILGALIADSWLGKFKTIVSLSIVYTIGQAVTSVSSINDLTDHNHDGTPDSLPVHVVLSLIGLALIALGTGGIKPCVSAFGGDQFEEGQEKQRNRFFSIFYLAINAGSLLSTIITPMLRVQQCGIHSKQACYPLAFGVPAALMAVALIVFVLGSGMYKKFKPQGNIMGKVAKCIGFAIKNRFRHRSKAFPKREHWLDWAKEKYDERLISQIKMVTRVMFLYIPLPMFWALFDQQGSRWTLQATTMSGKIGALEIQPDQMQTVNAILIVIMVPIFDAVLYPLIAKCGFNFTSLKKMAVGMVLASMAFVVAAIVQVEIDKTLPVFPKGNEVQIKVLNIGNNTMNISLPGEMVTLGPMSQTNAFMTFDVNKLTRINISSPGSPVTAVTDDFKQGQRHTLLVWAPNHYQVVKDGLNQKPEKGENGIRFVNTFNELITITMSGKVYANISSYNASTYQFFPSGIKGFTISSTEIPPQCQPNFNTFYLEFGSAYTYIVQRKNDSCPEVKVFEDISANTVNMALQIPQYFLLTCGEVVFSVTGLEFSYSQAPSNMKSVLQAGWLLTVAVGNIIVLIVAGAGQFSKQWAEYILFAALLLVVCVIFAIMARFYTYINPAEIEAQFDEDEKKNRLEKSNPYFMSGANSQKQM

binding [1]: binds
B2: Ras-GTPase-activating protein (SH3 domain)-binding protein 2 (G3BP2), endogenous (protein, UniProt Q9UN86 1-482)
chain: MVMEKPSPLLVGREFVRQYYTLLNKAPEYLHRFYGRNSSYVHGGVDASGKPQEAVYGQNDIHHKVLSLNFSECHTKIRHVDAHATLSDGVVVQVMGLLSNSGQPERKFMQTFVLAPEGSVPNKFYVHNDMFRYEDEVFGDSEPELDEESEDEVEEEQEERQPSPEPVQENANSGYYEAHPVTNGIEEPLEESSHEPEPEPESETKTEELKPQVEEKNLEELEEKSTTPPPAEPVSLPQEPPKAFSWASVTSKNLPPSGTVSSSGIPPHVKAPVSQPRVEAKPEVQSQPPRVREQRPRERPGFPPRGPRPGRGDMEQNDSDNRRIIRYPDSHQLFVGNLPHDIDENELKEFFMSFGNVVELRINTKGVGGKLPNFGFVVFDDSEPVQRILIAKPIMFRGEVRLNVEEKKTRAARERETRGGGDDRRDIRRNDRGPGGPRGIVGGGMMRDRDGRGPPPRGGMAQKLGSGRGTGQMEGRFTGQRR

binding (HA-MAP4K4): binds
B3: Flag-G3BP2 (protein, UniProt Q9UN86 1-482)
chain: B2 chain
